Our source for the Kd and IC50 values is publication PMC11718236.

Common to all, as to experiment: fluorescence anisotropy
For data set [1], the target named is Rho (transcription termination factor ρ, wt) (Escherichia coli) (UniProt P0AG30). Particulars: 20 mM HEPES pH 7.5, 150 mM KCl, 5% glycerol, 5 mM MgCl2, 0.5 mM TCEP, SBS assays with 10 uM unlabeled dC15 and 2 mM ADP-BeF3, probe 5 uM dC15-FAM or 2 uM rU12-FAM, recombinant protein, residues 1-419.
Data set [2] concerns the target Rho P167L (Escherichia coli) (UniProt P0AG30). Particulars: 20 mM HEPES pH 7.5, 150 mM KCl, 5% glycerol, 5 mM MgCl2, 0.5 mM TCEP, SBS assays with 10 uM unlabeled dC15 and 2 mM ADP-BeF3, probe 5 uM dC15-FAM or 2 uM rU12-FAM, recombinant protein, residues 1-419.
For data set [3], the system named is Rho P167L + Psu (polarity suppression protein). Particulars: SBS, IC50 of Psu added before RNA, dC15-blocked PBS, 2 mM ADP-BeF3; 20 mM HEPES pH 7.5, 150 mM KCl, 5% glycerol, 5 mM MgCl2, 0.5 mM TCEP; SBS assays with 10 uM unlabeled dC15 and 2 mM ADP-BeF3; probe 5 uM dC15-FAM or 2 uM rU12-FAM; recombinant protein.
Setting [4] is: SBS binding, PBS blocked with 10 uM unlabeled dC15, 2 mM ADP-BeF3, panel assignment from figure text order.

Construct, isoform or probe ends are uncertain for at least one entry.

Consider UUUUUUUUUUUU [rU12-FAM], for which the Kd (as a rule, a measure of binding affinity in units of concentration) in data set [1] (setting [4]) came out at 1200 nM; in data set [2] (setting [4]), 1500 nM. Besides, in data set [3], the IC50 (as a rule, the midpoint of a concentration-inhibition curve) amounted to 2800 nM.

As to CCCCCCCCCCCCCCC [dC15-FAM], the Kd amounted to 1100 nM in data set [1] (PBS binding, 5 mM Mg2+, panel assignment from figure text order (other PBS value 0.7), single-stranded DNA) and 700 nM in data set [2] (PBS binding, 5 mM Mg2+, panel assignment from figure text order (other PBS value 1.1), single-stranded DNA).
